Laboratory results reported in patent publication US20030073629A1, “Omi and domains thereof that disrupt IAP-caspase interaction” (priority 2001, published 2003).
Where a chain is given by its changes, count along the chain named. Names may count otherwise. No constants are given. Whether binding was seen depends on the method and setting. For part of these data: In cells and extracts the contact can be indirect. Some results given as binding are weak or reduced against the parent protein; the word gives no strength. For part of these data: Sequences can lack the tags named with a protein.

Chains of the proteins cited; added tags and fusions are not shown. Lines headed by an entry give the natural chain unless they say otherwise; changes in a name come on top. A line that says so, or that is headed by a name, gives the form on record, which may keep a tag or linker. Residues count along the entry.
UniProt P98170: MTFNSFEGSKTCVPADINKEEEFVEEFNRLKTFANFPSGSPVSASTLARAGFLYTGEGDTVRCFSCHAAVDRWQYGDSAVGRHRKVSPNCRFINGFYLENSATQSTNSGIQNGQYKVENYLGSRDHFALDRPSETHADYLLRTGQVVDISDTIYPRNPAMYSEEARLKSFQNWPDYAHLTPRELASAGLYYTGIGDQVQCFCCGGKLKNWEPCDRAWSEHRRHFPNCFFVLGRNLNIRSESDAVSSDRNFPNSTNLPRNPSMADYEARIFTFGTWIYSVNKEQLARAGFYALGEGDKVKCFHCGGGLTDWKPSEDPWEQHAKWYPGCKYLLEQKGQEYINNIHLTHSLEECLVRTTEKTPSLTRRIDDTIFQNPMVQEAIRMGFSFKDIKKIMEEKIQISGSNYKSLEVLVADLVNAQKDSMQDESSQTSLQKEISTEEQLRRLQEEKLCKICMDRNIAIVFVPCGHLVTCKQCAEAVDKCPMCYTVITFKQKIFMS
GST-BIR1, 2 fusion protein: residues 1-240 of P98170
GST-BIR3 fusion protein (BIR3 domain of human XIAP fused to GST): residues 238-358 of P98170
UniProt Q13490: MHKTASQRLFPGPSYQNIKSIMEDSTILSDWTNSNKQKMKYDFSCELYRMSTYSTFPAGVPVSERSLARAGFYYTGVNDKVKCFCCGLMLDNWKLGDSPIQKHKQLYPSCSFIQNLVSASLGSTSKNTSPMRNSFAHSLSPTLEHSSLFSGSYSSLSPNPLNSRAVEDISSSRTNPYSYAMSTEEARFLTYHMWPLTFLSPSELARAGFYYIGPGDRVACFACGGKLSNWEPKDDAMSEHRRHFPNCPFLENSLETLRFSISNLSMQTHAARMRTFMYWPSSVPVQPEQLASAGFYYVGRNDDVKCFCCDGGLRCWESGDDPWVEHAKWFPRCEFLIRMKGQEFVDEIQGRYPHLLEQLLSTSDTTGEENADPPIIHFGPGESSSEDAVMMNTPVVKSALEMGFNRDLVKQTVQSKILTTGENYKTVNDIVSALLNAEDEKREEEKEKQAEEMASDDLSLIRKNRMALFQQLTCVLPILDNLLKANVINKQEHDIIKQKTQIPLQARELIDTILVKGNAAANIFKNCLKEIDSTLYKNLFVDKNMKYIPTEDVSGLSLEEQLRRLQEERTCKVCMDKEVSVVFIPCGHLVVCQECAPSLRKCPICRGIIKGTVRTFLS
UniProt Q13489: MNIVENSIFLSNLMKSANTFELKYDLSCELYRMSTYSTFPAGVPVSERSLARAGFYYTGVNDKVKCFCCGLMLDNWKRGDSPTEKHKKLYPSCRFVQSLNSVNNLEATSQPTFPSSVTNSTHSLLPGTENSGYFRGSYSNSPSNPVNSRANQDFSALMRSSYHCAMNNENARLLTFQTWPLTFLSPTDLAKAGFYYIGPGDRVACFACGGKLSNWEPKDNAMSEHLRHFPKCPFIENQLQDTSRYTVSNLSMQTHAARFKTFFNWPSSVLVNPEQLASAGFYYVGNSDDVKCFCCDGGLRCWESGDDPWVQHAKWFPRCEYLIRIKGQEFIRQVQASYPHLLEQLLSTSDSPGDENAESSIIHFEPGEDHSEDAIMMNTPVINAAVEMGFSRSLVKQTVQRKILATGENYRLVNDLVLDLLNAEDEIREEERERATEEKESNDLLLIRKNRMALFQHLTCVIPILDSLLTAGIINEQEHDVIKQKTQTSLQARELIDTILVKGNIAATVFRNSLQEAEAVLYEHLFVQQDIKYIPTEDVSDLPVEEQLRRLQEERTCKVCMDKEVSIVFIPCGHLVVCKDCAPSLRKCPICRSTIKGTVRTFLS

Tests used:
[1] = biological target: GST-BIR3 fusion protein (BIR3 domain of human XIAP fused to GST) (human) (UniProt P98170); assay: GST-BIR3 pull-down from undepleted and Smac-depleted 293 extracts, far-western
[2] = biological target: cIAP1 (UniProt Q13490); assay: His6-tagged protein on Talon resin, pull-down of ^35S-labeled in vitro-translated IAP, autoradiography
[3] = biological target: cIAP2 (UniProt Q13489); assay: as above
[4] = biological target: XIAP (human) (UniProt P98170); assay: as above
[5] = biological target: GST-BIR3 fusion protein (BIR3 domain of human XIAP fused to GST) (human) (UniProt P98170); assay: GST pull-down with purified recombinant proteins, Coomassie gel
[6] = biological target: GST-BIR1, 2 fusion protein (human) (UniProt P98170); assay: as above
[7] = biological target: XIAP (human) (UniProt P98170); assay: co-immunoprecipitation with Flag antibody from transfected 293T cells, XIAP immunoblot
[8] = biological target: GST-BIR3 fusion protein (BIR3 domain of human XIAP fused to GST) (human) (UniProt P98170); assay: GST-BIR3 precipitation of transfected 293T cell extracts, Flag immunoblot

B1: endogenous mature Omi from HEK293 cell extracts (38 kDa band) (enzyme)
chain: AVPSPPPASPRSQYNFIADVVEKTAPAVVYIEILDRHPFLGREVPISNGSGFVVAADGLIVTNAHVVADRRRVRVRLLSGDTYEAVVTAVDPVADIATLRIQTKEPLPTLPLGRSADVRQGEFVVAMGSPFALQNTITSGIVSSAQRPARDLGLPQTNVEYIQTDAAIDFGNSGGPLVNLDGEVIGVNTMKVTAGISFAIPSDRLREFLHRGEKKNSSSGISGSQRRYIGVMMLTLSPSILAELQLREPSFPDVQHGVLIHKVILGSPAHRAGLRPGDVILAIGEQMVQNAEDVYEAVRTQSQLAVQIRRGRETLTLYVTPEVTE
- binding [1]: binds

B2: C-terminal His6-tagged recombinant wild type mature Omi (Omi lacking the first 133 residues) (enzyme)
chain: AVPSPPPASPRSQYNFIADVVEKTAPAVVYIEILDRHPFLGREVPISNGSGFVVAADGLIVTNAHVVADRRRVRVRLLSGDTYEAVVTAVDPVADIATLRIQTKEPLPTLPLGRSADVRQGEFVVAMGSPFALQNTITSGIVSSAQRPARDLGLPQTNVEYIQTDAAIDFGNSGGPLVNLDGEVIGVNTMKVTAGISFAIPSDRLREFLHRGEKKNSSSGISGSQRRYIGVMMLTLSPSILAELQLREPSFPDVQHGVLIHKVILGSPAHRAGLRPGDVILAIGEQMVQNAEDVYEAVRTQSQLAVQIRRGRETLTLYVTPEVTEHHHHHH
- binding [2]: binds
- binding [3]: binds
- binding [4]: binds
- binding [5]: binds
- binding [6]: binds

B3: Omi-S306A (C-terminal His6-tagged recombinant mature Omi, active site Ser306 to Ala) (enzyme)
chain: B2 chain with S173A
- binding [5]: binds

B4: mature Omi processed in 293T cells from the C-terminal Flag-tagged wild type Omi precursor (enzyme, not shown: small tags and cut ends)
chain: B1 chain
- binding [7]: binds

B5: mature Omi-S/A released by caspase cleavage at the IETD site of GFP-IETD-AVP (enzyme)
chain: B1 chain with S173A
- binding [8]: binds
